Experimental data: US7456018B2, “Human hepatoma lines, methods for obtaining same and uses thereof” (priority 2001, dated 2008)
At least one structure is not confirmed: it was looked up by name or label, or the drawing left a doubt.

Tested on: HepaRG cells
Assay: Biliary/hepatocyte route differentiation of HepaRG cells, in situ marking (indirect immunohistochemistry); also: key: −/+: weakly positive; +: positive; ++: highly positive
Assay type: cell-based, human
Settings: HepaRG cells treated with 2% DMSO or 3.75 mM sodium butyrate
Protocol: HepaRG cells were separated, diluted to ⅕ in Williams' E medium to which 5 μg/ml of insulin, 100 U/ml of penicillin, 100 μg/ml of streptomycin, 510-5M of hydrocortisone hemisuccinate, 2 mM of L-glutamine and 10% FCS were added, then redistributed into wells with a plastic support. Four culture conditions were produced: • HepaRG cells were treated with 3.75 mM sodium butyrate in the maintenance medium as from the day following subculture according to the protocol described by Blouin et al. (1995, Specialization switch in differentiating embryonic rat liver progenitor cells in response to sodium butyrate, Exp. cell res., 217: 22-33). The medium is then replenished every 2-3 days, • the HepaRG cells were treated 5 days after subculture by 3.75 mM sodium butyrate or 2% DMSO. The medium was replenished every day for 5 days, • the HepaRG cells were treated at strong confluence by 3.75 mM sodium butyrate; the medium was replenished every 2-3 days, • the HepaRG cells were seeded on a plastic support or monolayer of rat primitive biliary epithelial cells in MEM alpha medium complemented with L-glutamine (2 mM), i-inositol (0.2 mM), folic acid ([…]), β-mercaptoethanol (10^−4 M), transferrin 200 μg/ml, 12.5% FCS and 12.5% horse serum. In certain situations, cytokines such as LIF, IL-3, SCF or G-CSF were added to the medium. This medium was replenished every 2-3 days. Indirect Immunohistochemistry
The cells after washing with PBS are fixed by a solution of 4% paraformaldehyde buffered by 0.1 M sodium cacodylate at pH 7.4 for 20 minutes at 4° C. They are then preserved in a PBS buffer until the time of the analysis.
The specific sites are saturated for 45 minutes with PBS containing 10% FCS. The samples are then treated with primary antibodies for an hour at ordinary temperature in PBS containing 0.05% saponin. After 3 washings in PBS containing 0.05% saponin, the samples are incubated with the second antibody coupled to peroxydase.
The morphological modifications observed in the presence of sodium butyrate are correlated to phenotypical changes (Blouin et al. 1995). […]

C[S+](C)[O-] [DMSO]
−: Cytokeratin 7 expression | Cytokeratin 19 expression | α6 chain expression
